Results deposited as PubChem BioAssay AID1159584 (Peter MacCallum Cancer Centre, 2016)
In all, the deposit lists about 18,000 reagents; below is a random part of them. The record does not give: the amount of reagent, the time to read-out.

Purpose: 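Knock-downs that harm CDH1-null cells more than parental MCF10A cells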 (primary screen)
System: human MCF10A breast epithelial cells, parental and CDH1-null
Reagents: siRNA against human genes
Read-out: 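ATP luminescence (CellTiter-Glo) viability per line relative to mean mock wells over all plates, and the ratio of CDH1-null to parental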
Scale: CDH1-null / parental viability ratio: higher = CDH1-null cells survive relatively better than parental; CDH1-null viability vs mock: higher = more viable CDH1-null cells; parental viability vs mock: higher = more viable parental cells

target gene	CDH1-null / parental viability ratio	CDH1-null viability vs mock (fraction of mock)	parental viability vs mock (fraction of mock)
ADORA3 (adenosine A3 receptor)	0.74	0.52	0.7
CUL1 (cullin 1)	1.22	1.06	0.87
RILPL2 (Rab interacting lysosomal protein like 2)	1.11	0.93	0.84
JKAMP (JNK1/MAPK8 associated membrane protein)	0.69	0.36	0.52
EIF1 (eukaryotic translation initiation factor 1)	1.04	0.8	0.77
OR8H1 (olfactory receptor family 8 subfamily H member 1)	1.38	0.87	0.63
PLCH1 (phospholipase C eta 1)	1.02	0.97	0.95
LHCGR (luteinizing hormone/choriogonadotropin receptor)	1.49	0.94	0.63
XRCC5 (X-ray repair cross complementing 5)	0.87	0.69	0.79
DAZ3 (deleted in azoospermia 3)	1.07	0.49	0.46
RBM38 (RNA binding motif protein 38)	1.4	0.84	0.6
OR4C16 (olfactory receptor family 4 subfamily C member 16)	0.81	0.7	0.86
AMN1 (antagonist of mitotic exit network 1 homolog)	0.74	0.58	0.78
SYT9 (synaptotagmin 9)	0.94	0.64	0.68
ODAD2 (outer dynein arm docking complex subunit 2)	1.05	1.16	1.1
DTD1 (D-aminoacyl-tRNA deacylase 1)	1.01	0.86	0.85
PHKG1 (phosphorylase kinase catalytic subunit gamma 1)	0.71	0.68	0.96
CRISP1 (cysteine rich secretory protein 1)	1.36	0.8	0.59
OBI1 (ORC ubiquitin ligase 1)	0.93	0.56	0.6
DORIP1 (dopamine receptor interacting protein 1)	0.92	0.46	0.5
AP4B1 (adaptor related protein complex 4 subunit beta 1)	1.24	1.09	0.88
GBX2 (gastrulation brain homeobox 2)	1.13	1.02	0.9
WWP2 (WW domain containing E3 ubiquitin protein ligase 2)	1.23	0.91	0.74
NR2E1 (nuclear receptor subfamily 2 group E member 1)	0.81	0.73	0.9
INSIG2 (insulin induced gene 2)	1.06	1.08	1.02
BCL9 (BCL9 transcription coactivator)	0.82	0.6	0.73
NSUN4 (NOP2/Sun RNA methyltransferase 4)	0.95	0.98	1.03
ZNF689 (zinc finger protein 689)	1.01	0.92	0.91

5 entries already listed, arranged by “CDH1-null viability vs mock (fraction of mock)”, ascending:
target gene	CDH1-null / parental viability ratio	CDH1-null viability vs mock (fraction of mock)	parental viability vs mock (fraction of mock)
JKAMP (JNK1/MAPK8 associated membrane protein)	0.69	0.36	0.52
EIF1 (eukaryotic translation initiation factor 1)	1.04	0.8	0.77
OR8H1 (olfactory receptor family 8 subfamily H member 1)	1.38	0.87	0.63
RILPL2 (Rab interacting lysosomal protein like 2)	1.11	0.93	0.84
PLCH1 (phospholipase C eta 1)	1.02	0.97	0.95

The results go on:
target gene	CDH1-null / parental viability ratio	CDH1-null viability vs mock (fraction of mock)	parental viability vs mock (fraction of mock)
GGA2	0.82	0.73	0.89
LGALS1 (galectin 1)	1.08	0.65	0.6
BICD2 (BICD cargo adaptor 2)	0.95	0.55	0.58
GRK6 (G protein-coupled receptor kinase 6)	0.98	0.86	0.88
MNDA (myeloid cell nuclear differentiation antigen)	1.15	0.97	0.84
FAM20B (FAM20B glycosaminoglycan xylosylkinase)	1.13	0.62	0.55
TFAP2E (transcription factor AP-2 epsilon)	1.06	0.94	0.89
COX11 (cytochrome c oxidase copper chaperone COX11)	1.01	1.07	1.06
OR5W2 (olfactory receptor family 5 subfamily W member 2)	0.86	0.62	0.72
DDOST	1.03	1	0.97
TPSD1 (tryptase delta 1)	1.39	0.86	0.62
RNF19A (ring finger protein 19A, RBR E3 ubiquitin protein ligase)	0.98	0.78	0.8
HEY2	0.91	0.69	0.76
PPP1R15B (protein phosphatase 1 regulatory subunit 15B)	1.1	0.46	0.42
OR10K1 (olfactory receptor family 10 subfamily K member 1)	1.24	1.17	0.94
TMEM35A (transmembrane protein 35A)	0.62	0.44	0.71
GAR1 (GAR1 ribonucleoprotein)	1.02	0.67	0.66
SERPINI2 (serpin family I member 2)	0.99	1	1.01
KIF3C (kinesin family member 3C)	1.07	1.02	0.95
ZNF84 (zinc finger protein 84)	1.12	0.92	0.82
MRPS7 (mitochondrial ribosomal protein S7)	1.11	0.88	0.79
MAP4K3 (mitogen-activated protein kinase kinase kinase kinase 3)	0.73	0.69	0.94
SESN1 (sestrin 1)	1.13	1.04	0.92
PPIG (peptidylprolyl isomerase G)	0.92	0.77	0.84
ADIRF (adipogenesis regulatory factor)	1.23	0.32	0.26
ATF7 (activating transcription factor 7)	0.97	0.64	0.66
CDK4 (cyclin dependent kinase 4)	1.15	0.94	0.82
ENTPD7 (ectonucleoside triphosphate diphosphohydrolase 7)	0.8	0.77	0.96
ZIK1 (zinc finger protein interacting with K protein 1)	1.19	1.02	0.86
NMNAT1 (nicotinamide nucleotide adenylyltransferase 1)	0.93	0.78	0.84
FOXJ3 (forkhead box J3)	1.06	0.83	0.78
MAPK8IP2 (mitogen-activated protein kinase 8 interacting protein 2)	1.11	0.82	0.74
CAMTA2 (calmodulin binding transcription activator 2)	1.17	0.91	0.78
SLC35E4	1.15	0.97	0.84
DLEC1 (DLEC1 cilia and flagella associated protein)	1.01	0.94	0.93
KLHL34 (kelch like family member 34)	0.81	0.62	0.77
ARX (aristaless related homeobox)	1.02	1	0.98
CAAP1 (caspase activity and apoptosis inhibitor 1)	0.91	0.9	0.99
AGAP2 (ArfGAP with GTPase domain, ankyrin repeat and PH domain 2)	1.16	0.64	0.55
DLX3 (distal-less homeobox 3)	1.05	0.99	0.94
